{"source": "PubChem BioAssay AID743454 (Peter MacCallum Cancer Centre, 2014)", "purpose": "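Knock-downs lowering viability or raising caspase 3/7 activity in vorinostat-treated resistant cells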 (primary screen)", "system": "human HCT116-VR colon cancer cells, selected for vorinostat resistance", "knock-down reagent": "siRNA pool against human genes, 40 nM siRNA pool", "duration": "vorinostat for 24 h, read-out about 72 h after transfection", "conditions": "vorinostat at 2.5 µM final", "detection": "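Two measures, CellTiter-Fluor viability and luminescent caspase 3/7 activity, each as fold change against same-plate mock wells, mean of duplicates, then screen-wide robust z-score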", "scale": "viability robust z-score: higher = more viable cells than screen typical; caspase robust z-score: higher = more caspase 3/7 activity than screen typical", "hit rule": "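Hits are knock-downs in viability class RV1/RV2 or caspase class CA1/CA2, excluding ones that killed cells in the no-drug cell-count arm; hits then retested with single siRNAs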", "note": "Here is one part, drawn at random, of about 18,000 reagents tested. 450 of all reagents (2.5%) count as active. 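Single biological run; no consistent viability z cut-off exists, so the class columns, not z-scores, define the calls.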"}
{"target": "MOGAT2 (monoacylglycerol O-acyltransferase 2)", "viability hit class": "no change", "caspase hit class": "no change", "viability robust z-score": -0.32, "caspase robust z-score": 0.75, "call": "inactive"}
{"target": "RASSF5 (Ras association domain family member 5)", "viability hit class": "no change", "caspase hit class": "no change", "viability robust z-score": 1.18, "caspase robust z-score": -0.38, "call": "inactive"}
{"target": "AKR1B15 (aldo-keto reductase family 1 member B15)", "viability hit class": "no change", "caspase hit class": "no change", "viability robust z-score": 0.74, "caspase robust z-score": -1.2, "call": "inactive"}
{"target": "CLEC4A (C-type lectin domain family 4 member A)", "viability hit class": "no change", "caspase hit class": "no change", "viability robust z-score": -1.65, "caspase robust z-score": 2.96, "call": "inactive"}
{"target": "FBXO2 (F-box protein 2)", "viability hit class": "no change", "caspase hit class": "no change", "viability robust z-score": -1.23, "caspase robust z-score": 0.6, "call": "inactive"}
{"target": "NPC1L1 (NPC1 like intracellular cholesterol transporter 1)", "viability hit class": "no change", "caspase hit class": "CA1 (caspase activation)", "viability robust z-score": -1.51, "caspase robust z-score": 5.8, "call": "active"}
{"target": "PRKAR1A", "viability hit class": "no change", "caspase hit class": "no change", "viability robust z-score": 0.4, "caspase robust z-score": 0.08, "call": "inactive"}
{"target": "FAM13A (family with sequence similarity 13 member A)", "viability hit class": "no change", "caspase hit class": "no change", "viability robust z-score": 0.34, "caspase robust z-score": 4.97, "call": "inactive"}
{"target": "OR13C9 (olfactory receptor family 13 subfamily C member 9)", "viability hit class": "no change", "caspase hit class": "no change", "viability robust z-score": -1.5, "caspase robust z-score": 1.56, "call": "inactive"}
{"target": "SPRYD7 (SPRY domain containing 7)", "viability hit class": "no change", "caspase hit class": "no change", "viability robust z-score": -0.98, "caspase robust z-score": 0.72, "call": "inactive"}
{"target": "TH (tyrosine hydroxylase)", "viability hit class": "no change", "caspase hit class": "no change", "viability robust z-score": -0.47, "caspase robust z-score": -0.2, "call": "inactive"}
{"target": "KHDC3L", "viability hit class": "no change", "caspase hit class": "no change", "viability robust z-score": 0.65, "caspase robust z-score": -0.09, "call": "inactive"}
{"target": "TRAF4 (TNF receptor associated factor 4)", "viability hit class": "no change", "caspase hit class": "no change", "viability robust z-score": -0.94, "caspase robust z-score": -0.02, "call": "inactive"}
{"target": "KLHL8 (kelch like family member 8)", "viability hit class": "no change", "caspase hit class": "no change", "viability robust z-score": 0.06, "caspase robust z-score": 3.23, "call": "inactive"}
{"target": "HCG9 (HLA complex group 9)", "viability hit class": "no change", "caspase hit class": "no change", "viability robust z-score": 0.22, "caspase robust z-score": 0.18, "call": "inactive"}
{"target": "SLC30A9", "viability hit class": "no change", "caspase hit class": "no change", "viability robust z-score": -0.16, "caspase robust z-score": 0.6, "call": "inactive"}
{"target": "CCNE1 (cyclin E1)", "viability hit class": "no change", "caspase hit class": "no change", "viability robust z-score": -0.3, "caspase robust z-score": -0.29, "call": "inactive"}
{"target": "VNN2 (vanin 2)", "viability hit class": "no change", "caspase hit class": "no change", "viability robust z-score": 1.38, "caspase robust z-score": 0.05, "call": "inactive"}
{"target": "VRK3 (VRK serine/threonine kinase 3)", "viability hit class": "no change", "caspase hit class": "no change", "viability robust z-score": 0.68, "caspase robust z-score": 0.28, "call": "inactive"}
{"target": "GRPEL2 (GrpE like 2, mitochondrial)", "viability hit class": "no change", "caspase hit class": "no change", "viability robust z-score": -2.08, "caspase robust z-score": -0.76, "call": "inactive"}
{"target": "SPINK5 (serine peptidase inhibitor Kazal type 5)", "viability hit class": "no change", "caspase hit class": "no change", "viability robust z-score": 0.9, "caspase robust z-score": 0.06, "call": "inactive"}

Limited to “caspase robust z-score” (2 entries from above):
PRKAR1A	0.08
FAM13A (family with sequence similarity 13 member A)	4.97
